Results are given in words; binding and its absence hold for the method and conditions named. In cells and extracts the contact can be indirect. Some entries that bind do so weakly or less than the wild type. For some of these results: Tags and fused reporters may be left off the sequences shown.

By UniProt entry, the sequences of proteins in these tests, tags left out.
UniProt P46580: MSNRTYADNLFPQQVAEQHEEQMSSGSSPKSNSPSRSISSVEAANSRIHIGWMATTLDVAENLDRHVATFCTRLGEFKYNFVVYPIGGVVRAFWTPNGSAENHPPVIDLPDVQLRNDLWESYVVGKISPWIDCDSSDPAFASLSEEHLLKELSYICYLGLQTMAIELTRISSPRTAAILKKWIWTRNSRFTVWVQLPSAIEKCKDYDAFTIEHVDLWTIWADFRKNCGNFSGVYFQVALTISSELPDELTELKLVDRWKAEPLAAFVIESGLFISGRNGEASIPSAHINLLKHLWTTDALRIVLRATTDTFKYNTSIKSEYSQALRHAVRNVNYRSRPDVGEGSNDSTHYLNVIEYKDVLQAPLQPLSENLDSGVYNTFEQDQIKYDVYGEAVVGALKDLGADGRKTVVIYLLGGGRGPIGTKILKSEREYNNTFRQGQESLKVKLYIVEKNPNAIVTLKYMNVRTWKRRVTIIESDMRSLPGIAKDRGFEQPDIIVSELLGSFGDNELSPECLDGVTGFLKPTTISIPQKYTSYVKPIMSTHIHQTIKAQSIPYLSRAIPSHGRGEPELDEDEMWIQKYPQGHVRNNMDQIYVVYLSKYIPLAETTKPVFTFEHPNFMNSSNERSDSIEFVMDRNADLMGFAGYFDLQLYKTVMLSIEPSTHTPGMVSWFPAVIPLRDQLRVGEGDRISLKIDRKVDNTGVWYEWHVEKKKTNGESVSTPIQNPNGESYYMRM

We go through 3 molecules from PMC2691592.

One assay deals with GST-PRMT-5 (C. elegans) (UniProt P46580). Nature of the assay: pull-down; purified GST fusion protein immobilised on glutathione-Sepharose beads, incubated with [35S]methionine-labeled in vitro translated proteins at 4°C for more than 2 h; SDS-PAGE and autoradiography; only the target purified.
The target in another assay is T1, GST-CEP-1 (C. elegans) (UniProt Q20646).
T1 sequence: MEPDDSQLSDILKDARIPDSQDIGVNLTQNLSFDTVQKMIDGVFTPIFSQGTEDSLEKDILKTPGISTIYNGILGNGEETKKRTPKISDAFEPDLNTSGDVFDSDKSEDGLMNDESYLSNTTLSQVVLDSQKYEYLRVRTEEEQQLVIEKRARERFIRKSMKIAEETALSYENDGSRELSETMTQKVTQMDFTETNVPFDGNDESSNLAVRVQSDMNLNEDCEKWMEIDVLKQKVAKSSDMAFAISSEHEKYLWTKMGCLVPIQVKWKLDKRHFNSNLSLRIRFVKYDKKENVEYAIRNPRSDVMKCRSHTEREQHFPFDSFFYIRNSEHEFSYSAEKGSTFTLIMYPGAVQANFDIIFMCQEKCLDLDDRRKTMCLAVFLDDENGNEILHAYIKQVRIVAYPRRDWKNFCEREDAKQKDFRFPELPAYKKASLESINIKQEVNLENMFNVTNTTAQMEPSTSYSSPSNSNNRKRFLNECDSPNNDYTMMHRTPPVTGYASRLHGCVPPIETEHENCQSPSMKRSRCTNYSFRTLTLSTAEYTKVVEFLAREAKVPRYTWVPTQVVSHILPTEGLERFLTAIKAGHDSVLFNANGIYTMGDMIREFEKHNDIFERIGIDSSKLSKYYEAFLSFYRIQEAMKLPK
The assay is described as above.

B1: CBP-1(1–320) (35S-labeled, in vitro translated) (domain or fragment, UniProt P34545 1-320)
chain: MDEPPSKKSRADSDYDSGLDALSALESLEAFPTSSKDTDVDNNPSTSAGGSGGPSGSTPHPQGTPQPAPSNNGGFNLQPGQSQPQQPPQNMGGGVNGSVLQELLMNPSQTSNNSPRPQAYPPGQQNAFNRSPMMPNGTPNMMSPPSMGRVPGPSPGGPQPPGPGQPQMRPGQPGMFQGDQQQQMMMGAQGQQFPGMMHRYPYAQGGPPPGAQGMPQGYPGVSRGGPTPGQPMGRGAMMNGAMPRSGPMPTQGRPGIPPNQQAMMQPMMTDRQFMQHGQYGQQRPEFMQQYGRPGGYPMMHQGMMMDSNGQPIRGPNQMMM
modifications: [35S]methionine-labeled
B1: the binding entry in the assay with GST-PRMT-5 (C. elegans) is reported as “binds”.

B2: CBP-1(1286–1770) (domain or fragment, UniProt P34545 1286-1770)
chain: KPKRLQDWYKKMLEKGVQEGSVVEFKDIYKQARDDNLTTPTQLPYFEGDFWPNVIEDCIREASNEEAQRKVKEDDDDGEDADGGLGGGDSGKKKSSKNKKNNLKKNAKMNKKKAGSITGNEVADKLYSQFEKHKEVFFTIRLVSLQNEPAVLAKPISDPDGLMQSDMMDGRDTFLTKAREEHWEFSSLRRAKYSTLCLAYSLHETDSKGMEYTCNKCSSPAVWHCQSCDDFDLCDGCKPTTQHPHEMEKIKSLIGGGEAGDSAAGGTRYESIQRCIASLVHACQCRDANCRRMSCHKMKRVVQHTKMCKKRINGTCPVCKQLIALCCYHAKHCTRDACTVPFCMNIRQKLAEQKRSQQRRADMMMRRRMEGLQSHVGGAAPTPSTVSNGTPSNAPTPPVSAGPGPAVKGGGVGQVQMQQHQGSHVGGSGPAGMGQPMNSFGGMPGMGLGPNAQNGPGLPGMNPQMNANQSRYMPNGPGLGQSGAP
modifications: [35S]methionine-labeled
Consider B2, for which the binding result in the assay with GST-PRMT-5 (C. elegans) and with GST-CEP-1 (C. elegans) was “binds” throughout.

B3: CBP-1(771–1285) (domain or fragment, UniProt P34545 771-1285)
chain: VSAMLQPKTEPMDDQNTDSLSSRPPTAIGFGGSSSSTPAPIMNGIVKKEEDPEESSNQAPPSVKDTKDGVAESKPKEQQAKREPTPPPTEDTVFSQEDLIKFLLPVWEKLDKSEDAAPFRVPVDAKLLNIPDYHEIIKRPMDLETVHKKLYAGQYQNAGQFCDDIWLMLDNAWLYNRKNSKVYKYGLKLSEMFVSEMDPVMKSMGYCCAKKLAFTPLSLFCYGAAMCTIAREQQYWVFEQSSTQYNVTVTERYTYCQKCFDALPPEGISLSENPNDRNNMAPKTSFTEQKNSVIDYEPFERCKYCMRKWHRICALHDKKVYPEGFICECCRTAKKYQKPDNKYLASKLPHNKLSTFLEDRVNGFIKKQLQAEAHKYPVIIRTLCVQDKEAEVKAQMKQKYVESNQFPEKFPYRTKAVFAFEIIDGVEVCFFGLHVQEYGSACPAPNARRVYIAYLDSVHFFQPRELRTDVYHELLLGYLDYAKMLGYTMAHIWACPPSEGDDYIFHCHPPEQKIP
modifications: [35S]methionine-labeled
As to B3, in the assay with GST-CEP-1 (C. elegans), the binding result is “binds”.
